No constants are given. Whether binding was seen depends on the method and setting. Binding seen in cells or lysates may run through a third protein. A yes stands for co-enrichment or nearness to the bait. Other partners may have been found.
B1: MAU2 sister chromatid cohesion factor (protein, UniProt Q9Y6X3 1-613)
chain: MAAQAAAAAQAAAAQAAQAEAADSWYLALLGFAEHFRTSSPPKIRLCVHCLQAVFPFKPPQRIEARTHLQLGSVLYHHTKNSEQARSHLEKAWLISQQIPQFEDVKFEAASLLSELYCQENSVDAAKPLLRKAIQISQQTPYWHCRLLFQLAQLHTLEKDLVSACDLLGVGAEYARVVGSEYTRALFLLSKGMLLLMERKLQEVHPLLTLCGQIVENWQGNPIQKESLRVFFLVLQVTHYLDAGQVKSVKPCLKQLQQCIQTISTLHDDEILPSNPADLFHWLPKEHMCVLVYLVTVMHSMQAGYLEKAQKYTDKALMQLEKLKMLDCSPILSSFQVILLEHIIMCRLVTGHKATALQEISQVCQLCQQSPRLFSNHAAQLHTLLGLYCVSVNCMDNAEAQFTTALRLTNHQELWAFIVTNLASVYIREGNRHQEVLYSLLERINPDHSFPVSSHCLRAAAFYVRGLFSFFQGRYNEAKRFLRETLKMSNAEDLNRLTACSLVLLGHIFYVLGNHRESNNMVVPAMQLASKIPDMSVQLWSSALLRDLNKACGNAMDAHEAAQMHQNFSQQLLQDHIEACSLPEHNLITWTDGPPPVQFQAQNGPNTSLASLL
B2: CCCTC-binding factor (CTCF) (protein, UniProt P49711 1-727)
chain: MEGDAVEAIVEESETFIKGKERKTYQRRREGGQEEDACHLPQNQTDGGEVVQDVNSSVQMVMMEQLDPTLLQMKTEVMEGTVAPEAEAAVDDTQIITLQVVNMEEQPINIGELQLVQVPVPVTVPVATTSVEELQGAYENEVSKEGLAESEPMICHTLPLPEGFQVVKVGANGEVETLEQGELPPQEDPSWQKDPDYQPPAKKTKKTKKSKLRYTEEGKDVDVSVYDFEEEQQEGLLSEVNAEKVVGNMKPPKPTKIKKKGVKKTFQCELCSYTCPRRSNLDRHMKSHTDERPHKCHLCGRAFRTVTLLRNHLNTHTGTRPHKCPDCDMAFVTSGELVRHRRYKHTHEKPFKCSMCDYASVEVSKLKRHIRSHTGERPFQCSLCSYASRDTYKLKRHMRTHSGEKPYECYICHARFTQSGTMKMHILQKHTENVAKFHCPHCDTVIARKSDLGVHLRKQHSYIEQGKKCRYCDAVFHERYALIQHQKSHKNEKRFKCDQCDYACRQERHMIMHKRTHTGEKPYACSHCDKTFRQKQLLDMHFKRYHDPNFVPAAFVCSKCGKTFTRRNTMARHADNCAGPDGVEGENGGETKKSKRGRKRKMRSKKEDSSDSENAEPDLDDNEDEEEPAVEIEPEPEPQPVTPAPPPAKKRRGRPPGRTNQPKQNQPTAIIQVEDQNTGAIENIIVEVKKEPDAEPAEGEEEEAQPAATDAPNGDLTPEMILSMMDR
B3: ribosome biogenesis regulator BYSL (protein, UniProt Q13895 1-437)
chain: MPKFKAARGVGGQEKHAPLADQILAGNAVRAGVREKRRGRGTGEAEEEYVGPRLSRRILQQARQQQEELEAEHGTGDKPAAPRERTTRLGPRMPQDGSDDEDEEWPTLEKAATMTAAGHHAEVVVDPEDERAIEMFMNKNPPARRTLADIIMEKLTEKQTEVETVMSEVSGFPMPQLDPRVLEVYRGVREVLSKYRSGKLPKAFKIIPALSNWEQILYVTEPEAWTAAAMYQATRIFASNLKERMAQRFYNLVLLPRVRDDVAEYKRLNFHLYMALKKALFKPGAWFKGILIPLCESGTCTLREAIIVGSIITKCSIPVLHSSAAMLKIAEMEYSGANSIFLRLLLDKKYALPYRVLDALVFHFLGFRTEKRELPVLWHQCLLTLVQRYKADLATDQKEALLELLRLQPHPQLSPEIRRELQSAVPRDVEDVPITVE
B4: RACGAP1 (protein, UniProt Q9H0H5 1-632)
chain: MDTMMLNVRNLFEQLVRRVEILSEGNEVQFIQLAKDFEDFRKKWQRTDHELGKYKDLLMKAETERSALDVKLKHARNQVDVEIKRRQRAEADCEKLERQIQLIREMLMCDTSGSIQLSEEQKSALAFLNRGQPSSSNAGNKRLSTIDESGSILSDISFDKTDESLDWDSSLVKTFKLKKREKRRSTSRQFVDGPPGPVKKTRSIGSAVDQGNESIVAKTTVTVPNDGGPIEAVSTIETVPYWTRSRRKTGTLQPWNSDSTLNSRQLEPRTETDSVGTPQSNGGMRLHDFVSKTVIKPESCVPCGKRIKFGKLSLKCRDCRVVSHPECRDRCPLPCIPTLIGTPVKIGEGMLADFVSQTSPMIPSIVVHCVNEIEQRGLTETGLYRISGCDRTVKELKEKFLRVKTVPLLSKVDDIHAICSLLKDFLRNLKEPLLTFRLNRAFMEAAEITDEDNSIAAMYQAVGELPQANRDTLAFLMIHLQRVAQSPHTKMDVANLAKVFGPTIVAHAVPNPDPVTMLQDIKRQPKVVERLLSLPLEYWSQFMMVEQENIDPLHVIENSNAFSTPQTPDIKVSLLGPVTTPEHQLLKTPSSSSLSQRVRSTLTKNTPRFGSKSKSATNLGRQGNFFASPMLK
B5: KIFC1 (protein, UniProt Q9BW19 1-673)
chain: MDPQRSPLLEVKGNIELKRPLIKAPSQLPLSGSRLKRRPDQMEDGLEPEKKRTRGLGATTKITTSHPRVPSLTTVPQTQGQTTAQKVSKKTGPRCSTAIATGLKNQKPVPAVPVQKSGTSGVPPMAGGKKPSKRPAWDLKGQLCDLNAELKRCRERTQTLDQENQQLQDQLRDAQQQVKALGTERTTLEGHLAKVQAQAEQGQQELKNLRACVLELEERLSTQEGLVQELQKKQVELQEERRGLMSQLEEKERRLQTSEAALSSSQAEVASLRQETVAQAALLTEREERLHGLEMERRRLHNQLQELKGNIRVFCRVRPVLPGEPTPPPGLLLFPSGPGGPSDPPTRLSLSRSDERRGTLSGAPAPPTRHDFSFDRVFPPGSGQDEVFEEIAMLVQSALDGYPVCIFAYGQTGSGKTFTMEGGPGGDPQLEGLIPRALRHLFSVAQELSGQGWTYSFVASYVEIYNETVRDLLATGTRKGQGGECEIRRAGPGSEELTVTNARYVPVSCEKEVDALLHLARQNRAVARTAQNERSSRSHSVFQLQISGEHSSRGLQCGAPLSLVDLAGSERLDPGLALGPGERERLRETQAINSSLSTLGLVIMALSNKESHVPYRNSKLTYLLQNSLGGSAKMLMFVNISPLEENVSESLNSLRFASKVNQCVIGTAQANRK
B6: Rb transcriptional corepressor 1 (RBL1) (protein, UniProt P28749 1-1068)
chain: MFEDKPHAEGAAVVAAAGEALQALCQELNLDEGSAAEALDDFTAIRGNYSLEGEVTHWLACSLYVACRKSIIPTVGKGIMEGNCVSLTRILRSAKLSLIQFFSKMKKWMDMSNLPQEFRERIERLERNFEVSTVIFKKYEPIFLDIFQNPYEEPPKLPRSRKQRRIPCSVKDLFNFCWTLFVYTKGNFRMIGDDLVNSYHLLLCCLDLIFANAIMCPNRQDLLNPSFKGLPSDFHTADFTASEEPPCIIAVLCELHDGLLVEAKGIKEHYFKPYISKLFDRKILKGECLLDLSSFTDNSKAVNKEYEEYVLTVGDFDERIFLGADAEEEIGTPRKFTRDTPLGKLTAQANVEYNLQQHFEKKRSFAPSTPLTGRRYLREKEAVITPVASATQSVSRLQSIVAGLKNAPSDQLINIFESCVRNPVENIMKILKGIGETFCQHYTQSTDEQPGSHIDFAVNRLKLAEILYYKILETVMVQETRRLHGMDMSVLLEQDIFHRSLMACCLEIVLFAYSSPRTFPWIIEVLNLQPFYFYKVIEVVIRSEEGLSRDMVKHLNSIEEQILESLAWSHDSALWEALQVSANKVPTCEEVIFPNNFETGNGGNVQGHLPLMPMSPLMHPRVKEVRTDSGSLRRDMQPLSPISVHERYSSPTAGSAKRRLFGEDPPKEMLMDKIITEGTKLKIAPSSSITAENVSILPGQTLLTMATAPVTGTTGHKVTIPLHGVANDAGEITLIPLSMNTNQESKVKSPVSLTAHSLIGASPKQTNLTKAQEVHSTGINRPKRTGSLALFYRKVYHLASVRLRDLCLKLDVSNELRRKIWTCFEFTLVHCPDLMKDRHLDQLLLCAFYIMAKVTKEERTFQEIMKSYRNQPQANSHVYRSVLLKSIPREVVAYNKNINDDFEMIDCDLEDATKTPDCSSGPVKEERGDLIKFYNTIYVGRVKSFALKYDLANQDHMMDAPPLSPFPHIKQQPGSPRRISQQHSIYISPHKNGSGLTPRSALLYKFNGSPSKSLKDINNMIRQGEQRTKKRVIAIDSDAESPAKRVCQENDDVLLKRLQDVVSERANH
B7: ARHGAP11A (protein, UniProt Q6P4F7 1-1023)
chain: MWDQRLVRLALLQHLRAFYGIKVKGVRGQCDRRRHETAATEIGGKIFGVPFNALPHSAVPEYGHIPSFLVDACTSLEDHIHTEGLFRKSGSVIRLKALKNKVDHGEGCLSSAPPCDIAGLLKQFFRELPEPILPADLHEALLKAQQLGTEEKNKATLLLSCLLADHTVHVLRYFFNFLRNVSLRSSENKMDSSNLAVIFAPNLLQTSEGHEKMSSNTEKKLRLQAAVVQTLIDYASDIGRVPDFILEKIPAMLGIDGLCATPSLEGFEEGEYETPGEYKRKRRQSVGDFVSGALNKFKPNRTPSITPQEERIAQLSESPVILTPNAKRTLPVDSSHGFSSKKRKSIKHNFNFELLPSNLFNSSSTPVSVHIDTSSEGSSQSSLSPVLIGGNHLITAGVPRRSKRIAGKKVCRVESGKAGCFSPKISHKEKVRRSLRLKFNLGKNGREVNGCSGVNRYESVGWRLANQQSLKNRIESVKTGLLFSPDVDEKLPKKGSEKISKSEETLLTPERLVGTNYRMSWTGPNNSSFQEVDANEASSMVENLEVENSLEPDIMVEKSPATSCELTPSNLNNKHNSNITSSPLSGDENNMTKETLVKVQKAFSESGSNLHALMNQRQSSVTNVGKVKLTEPSYLEDSPEENLFETNDLTIVESKEKYEHHTGKGEKCFSERDFSPLQTQTFNRETTIKCYSTQMKMEHEKDIHSNMPKDYLSKQEFSSDEEIKKQQSPKDKLNNKLKENENMMEGNLPKCAAHSKDEARSSFSQQSTCVVTNLSKPRPMRIAKQQSLETCEKTVSESSQMTEHRKVSDHIQWFNKLSLNEPNRIKVKSPLKFQRTPVRQSVRRINSLLEYSRQPTGHKLASLGDTASPLVKSVSCDGALSSCIESASKDSSVSCIKSGPKEQKSMSCEESNIGAISKSSMELPSKSFLKMRKHPDSVNASLRSTTVYKQKILSDGQVKVPLDDLTNHDIVKPVVNNNMGISSGINNRVLRRPSERGRAWYKGSPKHPIGKTQLLPTSKPVDL

Chains of the proteins cited; added tags and fusions are not shown.
UniProt Q8IVV7: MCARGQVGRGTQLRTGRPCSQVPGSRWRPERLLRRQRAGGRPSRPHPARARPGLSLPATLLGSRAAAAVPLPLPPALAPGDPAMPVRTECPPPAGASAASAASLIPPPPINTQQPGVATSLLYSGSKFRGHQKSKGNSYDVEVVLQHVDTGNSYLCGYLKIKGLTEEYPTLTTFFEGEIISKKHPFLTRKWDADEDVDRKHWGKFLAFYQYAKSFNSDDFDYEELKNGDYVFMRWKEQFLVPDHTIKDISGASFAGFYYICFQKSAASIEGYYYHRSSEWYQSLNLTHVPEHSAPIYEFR

target: BirA2-Flag-GID4 fusion protein (human) (UniProt Q8IVV7); assay: proximity labelling; BioID2: BirA2-Flag-tagged bait in Flp-In T-REx HeLa cells, tetracycline 1 μg/ml and biotin 50 μM for 24 h, with or without MG132 (5 μM); biotinylated proteins on streptavidin beads, mass spectrometry, SAINT against BirA2-Flag-EGFP, BFDR ≤ 0.01

binding, binds:
B1
B2
B3
B4
B5
B6
B7

Reference: PMC11467045
